Assay results published in doi:10.1101/2024.02.14.580382.
These are yes or no findings as the source states them, for the method shown. In cells and extracts the contact can be indirect. Some binding calls cover weakened binding; strength is not graded here. Sequences can lack the tags named with a protein.

T1: DFCP1^554-777 (contains the C-terminal FYVE domains) (UniProt Q9HBF4)
T1 sequence: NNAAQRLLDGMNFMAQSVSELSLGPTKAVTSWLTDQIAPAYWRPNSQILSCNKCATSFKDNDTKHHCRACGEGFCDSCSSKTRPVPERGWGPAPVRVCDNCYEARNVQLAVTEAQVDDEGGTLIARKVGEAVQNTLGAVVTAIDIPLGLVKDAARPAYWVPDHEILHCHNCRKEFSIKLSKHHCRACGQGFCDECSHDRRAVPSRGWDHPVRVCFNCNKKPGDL

T2: GFP-DFCP1 (Double FYVE Domain Containing Protein 1), wild type (UniProt Q9HBF4)
T2 sequence: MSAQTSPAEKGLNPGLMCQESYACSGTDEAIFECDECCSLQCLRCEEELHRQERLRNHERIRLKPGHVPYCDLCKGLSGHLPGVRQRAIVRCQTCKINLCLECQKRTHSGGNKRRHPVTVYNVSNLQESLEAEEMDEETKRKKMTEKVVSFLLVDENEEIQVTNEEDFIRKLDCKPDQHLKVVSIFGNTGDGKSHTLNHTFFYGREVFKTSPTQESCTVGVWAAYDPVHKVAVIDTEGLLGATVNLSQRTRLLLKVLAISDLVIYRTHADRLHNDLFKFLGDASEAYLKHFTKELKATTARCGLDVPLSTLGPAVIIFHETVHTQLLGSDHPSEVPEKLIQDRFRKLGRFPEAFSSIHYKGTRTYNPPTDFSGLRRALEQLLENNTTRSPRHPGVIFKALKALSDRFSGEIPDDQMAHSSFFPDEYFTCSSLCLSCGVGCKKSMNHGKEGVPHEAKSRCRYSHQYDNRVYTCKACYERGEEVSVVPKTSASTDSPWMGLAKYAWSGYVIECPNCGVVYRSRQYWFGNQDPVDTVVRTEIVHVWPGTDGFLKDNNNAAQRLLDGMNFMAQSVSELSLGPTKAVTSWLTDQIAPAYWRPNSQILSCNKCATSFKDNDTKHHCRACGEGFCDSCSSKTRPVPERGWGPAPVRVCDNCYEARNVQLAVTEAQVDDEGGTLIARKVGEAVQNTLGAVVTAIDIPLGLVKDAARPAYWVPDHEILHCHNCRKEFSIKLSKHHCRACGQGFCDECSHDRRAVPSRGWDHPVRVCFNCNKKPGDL

T3: GFP-DFCP1^415-777 (contains the C-terminal FYVE domains) (UniProt Q9HBF4)
T3 sequence: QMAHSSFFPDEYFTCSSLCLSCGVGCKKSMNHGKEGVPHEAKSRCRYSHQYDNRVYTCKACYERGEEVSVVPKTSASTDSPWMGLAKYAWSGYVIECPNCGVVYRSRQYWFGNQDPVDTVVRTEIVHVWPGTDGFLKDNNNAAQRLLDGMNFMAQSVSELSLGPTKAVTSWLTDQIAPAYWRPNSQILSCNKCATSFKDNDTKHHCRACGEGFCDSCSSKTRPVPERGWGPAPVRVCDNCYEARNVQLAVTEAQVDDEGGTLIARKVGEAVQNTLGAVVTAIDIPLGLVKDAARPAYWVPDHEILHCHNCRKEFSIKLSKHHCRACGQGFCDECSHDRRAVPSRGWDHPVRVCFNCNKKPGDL

T4: GFP-DFCP1^KA (K193A, nucleotide-binding mutant of the NTPase domain) (UniProt Q9HBF4)
T4 sequence: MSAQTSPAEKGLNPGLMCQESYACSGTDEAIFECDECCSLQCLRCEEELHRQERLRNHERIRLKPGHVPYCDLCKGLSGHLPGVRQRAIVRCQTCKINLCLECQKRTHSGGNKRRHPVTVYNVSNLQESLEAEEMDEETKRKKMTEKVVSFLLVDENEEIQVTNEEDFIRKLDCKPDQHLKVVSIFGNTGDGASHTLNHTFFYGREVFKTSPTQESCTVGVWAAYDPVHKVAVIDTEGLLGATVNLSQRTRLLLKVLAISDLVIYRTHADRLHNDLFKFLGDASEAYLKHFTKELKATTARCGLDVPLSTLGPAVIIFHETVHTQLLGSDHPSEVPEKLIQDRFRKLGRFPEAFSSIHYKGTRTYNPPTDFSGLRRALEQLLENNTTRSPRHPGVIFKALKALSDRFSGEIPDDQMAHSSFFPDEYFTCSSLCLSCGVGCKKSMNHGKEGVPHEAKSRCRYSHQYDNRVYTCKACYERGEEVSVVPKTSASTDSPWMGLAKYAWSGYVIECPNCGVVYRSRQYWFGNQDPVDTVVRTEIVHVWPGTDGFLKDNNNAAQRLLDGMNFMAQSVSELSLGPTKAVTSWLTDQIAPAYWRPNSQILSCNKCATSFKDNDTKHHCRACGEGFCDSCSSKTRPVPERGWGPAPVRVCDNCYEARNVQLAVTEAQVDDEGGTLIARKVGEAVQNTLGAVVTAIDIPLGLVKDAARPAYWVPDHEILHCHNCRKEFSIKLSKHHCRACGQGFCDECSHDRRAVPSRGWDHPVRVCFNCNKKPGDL

T5: GFP-DFCP1^RQ (R266Q, NTPase domain mutant) (UniProt Q9HBF4)
T5 sequence: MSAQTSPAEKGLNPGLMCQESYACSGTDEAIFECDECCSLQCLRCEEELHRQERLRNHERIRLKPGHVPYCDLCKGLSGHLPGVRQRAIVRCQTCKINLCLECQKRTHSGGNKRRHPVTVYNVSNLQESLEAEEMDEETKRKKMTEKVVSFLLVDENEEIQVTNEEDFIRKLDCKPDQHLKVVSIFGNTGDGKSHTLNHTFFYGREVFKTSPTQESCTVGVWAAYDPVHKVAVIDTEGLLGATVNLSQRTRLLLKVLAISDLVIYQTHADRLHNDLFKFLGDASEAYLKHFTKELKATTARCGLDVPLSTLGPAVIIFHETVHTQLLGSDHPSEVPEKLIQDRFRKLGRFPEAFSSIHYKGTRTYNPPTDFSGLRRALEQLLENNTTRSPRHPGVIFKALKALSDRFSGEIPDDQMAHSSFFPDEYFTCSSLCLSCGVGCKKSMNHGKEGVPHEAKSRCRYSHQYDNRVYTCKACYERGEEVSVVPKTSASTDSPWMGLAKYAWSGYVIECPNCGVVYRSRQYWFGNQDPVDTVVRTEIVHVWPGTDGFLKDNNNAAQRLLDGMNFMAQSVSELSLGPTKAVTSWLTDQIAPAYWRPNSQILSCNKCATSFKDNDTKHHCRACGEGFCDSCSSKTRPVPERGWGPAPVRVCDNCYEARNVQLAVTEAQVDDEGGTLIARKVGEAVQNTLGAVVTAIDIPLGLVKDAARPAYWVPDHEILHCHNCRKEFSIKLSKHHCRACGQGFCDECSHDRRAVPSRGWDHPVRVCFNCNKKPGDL

T6: GFP-DFCP1^1-415 (N-terminal 415 residues, include the NTPase domain) (UniProt Q9HBF4)
T6 sequence: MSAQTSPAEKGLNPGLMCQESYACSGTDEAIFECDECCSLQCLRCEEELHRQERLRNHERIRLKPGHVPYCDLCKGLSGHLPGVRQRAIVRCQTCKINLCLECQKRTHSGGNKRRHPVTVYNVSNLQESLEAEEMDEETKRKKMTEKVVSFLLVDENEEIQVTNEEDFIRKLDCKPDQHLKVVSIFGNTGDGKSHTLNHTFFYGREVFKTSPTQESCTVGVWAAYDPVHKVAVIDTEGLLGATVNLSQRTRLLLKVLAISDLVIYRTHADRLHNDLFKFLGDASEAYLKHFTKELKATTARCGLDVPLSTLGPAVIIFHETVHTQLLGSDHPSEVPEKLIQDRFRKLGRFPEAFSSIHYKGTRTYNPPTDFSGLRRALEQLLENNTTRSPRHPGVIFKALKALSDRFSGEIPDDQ


Tests used:
Assay in all cases: pull-down
[1] = biological target: T1, DFCP1^554-777 (contains the C-terminal FYVE domains)
[2] = biological target: T2, GFP-DFCP1 (Double FYVE Domain Containing Protein 1), wild type
[3] = biological target: T3, GFP-DFCP1^415-777 (contains the C-terminal FYVE domains)
[4] = biological target: T4, GFP-DFCP1^KA (K193A, nucleotide-binding mutant of the NTPase domain)
[5] = biological target: T5, GFP-DFCP1^RQ (R266Q, NTPase domain mutant)
[6] = biological target: T6, GFP-DFCP1^1-415 (N-terminal 415 residues, include the NTPase domain)

binding [1]	binding [2]	binding [3]	binding [4]	binding [5]	binding [6]	Binder
binds	binds	binds	binds	binds	no binding	MBP-ATGL (1-254), N-terminal truncation of human ATGL with the patatin-like lipase domain (domain or fragment, UniProt Q96AD5 1-254) MFPREKTWNISFAGCGFLGVYYVGVASCLREHAPFLVANATHIYGASAGALTATALVTGVCLGEAGAKFIEVSKEARKRFLGPLHPSFNLVKIIRSFLLKVLPADSHEHASGRLGISLTRVSDGENVIISHFNSKDELIQANVCSGFIPVYCGLIPPSLQGVRYVDGGISDNLPLYELKNTITVSPFSGESDICPQDSSTNIHELRVTNTSIQFNLRNLYRLSKALFPPEPLVLREMCKQGYRDGLRFLQRNGL
–	binds	–	–	–	–	FLAG-ATGL (human Adipose Triglyceride Lipase, full length) (enzyme, UniProt Q96AD5 1-504) MFPREKTWNISFAGCGFLGVYYVGVASCLREHAPFLVANATHIYGASAGALTATALVTGVCLGEAGAKFIEVSKEARKRFLGPLHPSFNLVKIIRSFLLKVLPADSHEHASGRLGISLTRVSDGENVIISHFNSKDELIQANVCSGFIPVYCGLIPPSLQGVRYVDGGISDNLPLYELKNTITVSPFSGESDICPQDSSTNIHELRVTNTSIQFNLRNLYRLSKALFPPEPLVLREMCKQGYRDGLRFLQRNGLLNRPNPLLALPPARPHGPEDKDQAVESAQAEDYSQLPGEDHILEHLPARLNEALLEACVEPTDLLTTLSNMLPVRLATAMMVPYTLPLESALSFTIRLLEWLPDVPEDIRWMKEQTGSICQYLVMRAKRKLGRHLPSRLPEQVELRRVQSLPSVPLSCAAYREALPGWMRNNLSLGDALAKWEECQRQLLLGLFCTNVAFPPEALRMRAPADPAPAPADPASPQHQLAGPAPLLSTPAPEARPVIGALGL
